Measurements reported in US10821276B2, “System and method to locally deliver therapeutic agent to inner ear” (The Trustees of Columbia University in the City of New York, priority 2012, dated 2020).
At least one structure is not confirmed: it was looked up by name or label, or the drawing left a doubt.

Tests used:
[1] = Permeability of one pore estimated from diffusion coefficient and membrane thickness (P=D/h); 1% area perforation improvement
Text: From Fick's first law, diffusion is described by J=−D∇ϕ (1) where J is diffusion flux in mol/m^2*s, D is the diffusion coefficient in m^2/s, and ϕ is the concentration in mol/l. Then from a one-dimensional simplification of the pore
[formula] This can be further simplified with the gradient is uniform across the pore to obtain
[formula] where x is the axis through the pore in m, cx is the concentration at both ends in mol/l, and h is the RWM thickness in m. Then from the definition of flux
[formula] the permeability of the membrane is Flux=−PA(c1−c0) (5) where P=D/h is the permeability in m/s.
Thus the permeability of one pore can be estimated from the diffusion coefficient and the thickness of the membrane (10 μm, guinea pig).

[2] = cited from earlier work

Compound: C[C@@H]1C[C@H]2[C@@H]3CCC4=CC(=O)C=C[C@]4(C)[C@@]3(F)[C@@H](O)C[C@]2(C)[C@@]1(O)C(=O)CO [Dexamethasone]
- Ppore ([1]; D/h, membrane thickness 10 μm, guinea pig): 7.20 × 10^−5 m/s
- 1% perforation improvement ([1]; improvement ratio with 1% area perforation): 1.4~0.2 × 10
- D ([2]; diffusion coefficient): 7.20 × 10^−10 m2/s
- Diffusion Coefficient in water at 25° C. (298 K) ([2]; water, 25° C.): 7.20 10^−6 cm^2s^−1
